Data as given in PubChem BioAssay AID1224830 (NIAID, 2016).
Purpose: 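Host factors that control LPS-induced TNF expression in human macrophages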 (primary screen). System: human THP-1 monocytic leukaemia cells, TNF dual-luciferase reporter clone, PMA-differentiated to macrophage-like cells. Reagents: siRNA pool against human genes, 50 nM. Time to read-out: LPS for 4 h, given about 3 days after siRNA transfection. Treatment: bacterial LPS (TLR4 ligand), 10 ng/ml. Measured: 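TNF firefly reporter luminescence divided by renilla, normalised to the plate median, then turned into a robust z-score for each replicate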. Reading the numbers: TNF reporter robust z-score: higher = stronger TNF reporter response to LPS. Call rule: 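Each well counts as active if its z-score is over 2.8 or under -1.5; controls are left without a call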.
Shown is an unselected part of about 18,000 deposited reagents. About 2,900 of them (16%) were called active. 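Calls are made per well; low scores hint the gene aids the LPS response, high scores that it dampens it.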 Repeated entries: four replicate wells of each siRNA pool.

| target gene | TNF reporter robust z-score | Outcome |
| --- | --- | --- |
| NCOA1 (nuclear receptor coactivator 1) | -0.36 | inactive |
| NCOA1 (nuclear receptor coactivator 1) | -0.28 | inactive |
| NCOA1 (nuclear receptor coactivator 1) | -0.4 | inactive |
| NCOA1 (nuclear receptor coactivator 1) | 0.17 | inactive |
| OR9K2 (olfactory receptor family 9 subfamily K member 2) | 3.03 | active |
| OR9K2 (olfactory receptor family 9 subfamily K member 2) | -0.65 | inactive |
| OR9K2 (olfactory receptor family 9 subfamily K member 2) | 0.17 | inactive |
| OR9K2 (olfactory receptor family 9 subfamily K member 2) | 1.26 | inactive |
| SIRPG (signal regulatory protein gamma) | 0.36 | inactive |
| SIRPG (signal regulatory protein gamma) | 1.59 | inactive |
| SIRPG (signal regulatory protein gamma) | 1.11 | inactive |
| SIRPG (signal regulatory protein gamma) | 0.76 | inactive |
| OR11H12 (olfactory receptor family 11 subfamily H member 12) | -0.46 | inactive |
| OR11H12 (olfactory receptor family 11 subfamily H member 12) | 0.04 | inactive |
| OR11H12 (olfactory receptor family 11 subfamily H member 12) | -0.32 | inactive |
| OR11H12 (olfactory receptor family 11 subfamily H member 12) | -0.17 | inactive |
| BLOC1S5 (biogenesis of lysosomal organelles complex 1 subunit 5) | -0.72 | inactive |
| BLOC1S5 (biogenesis of lysosomal organelles complex 1 subunit 5) | 0.01 | inactive |
| BLOC1S5 (biogenesis of lysosomal organelles complex 1 subunit 5) | 0 | inactive |
| BLOC1S5 (biogenesis of lysosomal organelles complex 1 subunit 5) | 0.32 | inactive |
| BTG3 (BTG anti-proliferation factor 3) | 0.43 | inactive |
| BTG3 (BTG anti-proliferation factor 3) | 4.49 | active |
| BTG3 (BTG anti-proliferation factor 3) | 1.52 | inactive |
| BTG3 (BTG anti-proliferation factor 3) | 3.01 | active |
| DEK (DEK proto-oncogene) | 1.33 | inactive |
| DEK (DEK proto-oncogene) | 1 | inactive |
| DEK (DEK proto-oncogene) | 1.42 | inactive |
| DEK (DEK proto-oncogene) | 1.67 | inactive |
| TENM2 (teneurin transmembrane protein 2) | 0.7 | inactive |
| TENM2 (teneurin transmembrane protein 2) | 2.12 | inactive |
| TENM2 (teneurin transmembrane protein 2) | 0 | inactive |
| TENM2 (teneurin transmembrane protein 2) | 2.64 | inactive |
| DEFB135 (defensin beta 135) | -0.37 | inactive |
| DEFB135 (defensin beta 135) | 0.03 | inactive |
| DEFB135 (defensin beta 135) | -0.23 | inactive |
| DEFB135 (defensin beta 135) | -1.12 | inactive |
| ZBP1 (Z-DNA binding protein 1) | 1.09 | inactive |
| ZBP1 (Z-DNA binding protein 1) | 1.77 | inactive |
| ZBP1 (Z-DNA binding protein 1) | 0.66 | inactive |
| ZBP1 (Z-DNA binding protein 1) | 0.94 | inactive |
| POP5 (POP5 ribonuclease P/MRP subunit) | -0.22 | inactive |
| POP5 (POP5 ribonuclease P/MRP subunit) | -0.38 | inactive |
| POP5 (POP5 ribonuclease P/MRP subunit) | -0.82 | inactive |
| POP5 (POP5 ribonuclease P/MRP subunit) | -0.8 | inactive |
| NFATC3 (nuclear factor of activated T cells 3) | -0.5 | inactive |
| NFATC3 (nuclear factor of activated T cells 3) | 0.75 | inactive |
| NFATC3 (nuclear factor of activated T cells 3) | 1.03 | inactive |
| NFATC3 (nuclear factor of activated T cells 3) | 1.31 | inactive |
| ZNF267 (zinc finger protein 267) | 2.45 | inactive |
| ZNF267 (zinc finger protein 267) | -0.02 | inactive |
| ZNF267 (zinc finger protein 267) | 0.25 | inactive |
| ZNF267 (zinc finger protein 267) | 0.45 | inactive |
| PCIF1 (phosphorylated CTD interacting factor 1) | 1 | inactive |
| PCIF1 (phosphorylated CTD interacting factor 1) | 1.01 | inactive |
| PCIF1 (phosphorylated CTD interacting factor 1) | 1.39 | inactive |
| IRF4 (interferon regulatory factor 4) | -0.12 | inactive |
| IRF4 (interferon regulatory factor 4) | -0.27 | inactive |
| IRF4 (interferon regulatory factor 4) | -0.3 | inactive |
| IRF4 (interferon regulatory factor 4) | -0.46 | inactive |
| GPR20 (G protein-coupled receptor 20) | -0.71 | inactive |
| GPR20 (G protein-coupled receptor 20) | -0.6 | inactive |
| GPR20 (G protein-coupled receptor 20) | -1.09 | inactive |
| GPR20 (G protein-coupled receptor 20) | -0.37 | inactive |
| SCGB1D1 (secretoglobin family 1D member 1) | -0.15 | inactive |
| SCGB1D1 (secretoglobin family 1D member 1) | -0.65 | inactive |
| SCGB1D1 (secretoglobin family 1D member 1) | -0.74 | inactive |
| SCGB1D1 (secretoglobin family 1D member 1) | -0.34 | inactive |
| RYR1 (ryanodine receptor 1) | -1.11 | inactive |
| RYR1 (ryanodine receptor 1) | 0.01 | inactive |
| RYR1 (ryanodine receptor 1) | -0.04 | inactive |
| RYR1 (ryanodine receptor 1) | 1.72 | inactive |
| LRFN2 | 0.03 | inactive |
| LRFN2 | -0.85 | inactive |
| LRFN2 | 1.57 | inactive |
| LRFN2 | 1.91 | inactive |
| DDX27 (DEAD-box helicase 27) | 1.39 | inactive |
| DDX27 (DEAD-box helicase 27) | -0.55 | inactive |
| DDX27 (DEAD-box helicase 27) | -0.17 | inactive |
| DDX27 (DEAD-box helicase 27) | 0.28 | inactive |
| NPPC (natriuretic peptide C) | 1.33 | inactive |
| NPPC (natriuretic peptide C) | 2.32 | inactive |
| NPPC (natriuretic peptide C) | 1.65 | inactive |
| OR7G1 (olfactory receptor family 7 subfamily G member 1) | 0.35 | inactive |
| OR7G1 (olfactory receptor family 7 subfamily G member 1) | 0.33 | inactive |
| OR7G1 (olfactory receptor family 7 subfamily G member 1) | -0.6 | inactive |
| OR7G1 (olfactory receptor family 7 subfamily G member 1) | -0.13 | inactive |
| PBXIP1 (PBX homeobox interacting protein 1) | 1.7 | inactive |
| PBXIP1 (PBX homeobox interacting protein 1) | 0.61 | inactive |
| PBXIP1 (PBX homeobox interacting protein 1) | -0.07 | inactive |
| PBXIP1 (PBX homeobox interacting protein 1) | 2.9 | active |
| HSPB9 (heat shock protein family B (small) member 9) | 4.25 | active |
| HSPB9 (heat shock protein family B (small) member 9) | 1.96 | inactive |
| HSPB9 (heat shock protein family B (small) member 9) | 1.35 | inactive |
| HSPB9 (heat shock protein family B (small) member 9) | 0.41 | inactive |
| SOCS7 (suppressor of cytokine signaling 7) | -1.02 | inactive |
| SOCS7 (suppressor of cytokine signaling 7) | 3.38 | active |
| SOCS7 (suppressor of cytokine signaling 7) | -1.81 | active |
| SOCS7 (suppressor of cytokine signaling 7) | -0.71 | inactive |
| ADCK1 (aarF domain containing kinase 1) | 0.14 | inactive |
| ADCK1 (aarF domain containing kinase 1) | 0.29 | inactive |
| ADCK1 (aarF domain containing kinase 1) | 0.62 | inactive |
| ADCK1 (aarF domain containing kinase 1) | 1.04 | inactive |
| SUMO2 (small ubiquitin like modifier 2) | -0.96 | inactive |
| SUMO2 (small ubiquitin like modifier 2) | -1.12 | inactive |
| SUMO2 (small ubiquitin like modifier 2) | -0.37 | inactive |
| SUMO2 (small ubiquitin like modifier 2) | -0.72 | inactive |
| SETD7 (SET domain containing 7, histone lysine methyltransferase) | -0.58 | inactive |
| SETD7 (SET domain containing 7, histone lysine methyltransferase) | 1.25 | inactive |
| SETD7 (SET domain containing 7, histone lysine methyltransferase) | -1 | inactive |
| SETD7 (SET domain containing 7, histone lysine methyltransferase) | 0.22 | inactive |

Entries listed so far whose target name starts with P or p (11):
| target gene | TNF reporter robust z-score | Outcome |
| --- | --- | --- |
| POP5 (POP5 ribonuclease P/MRP subunit) | -0.22 | inactive |
| POP5 (POP5 ribonuclease P/MRP subunit) | -0.38 | inactive |
| POP5 (POP5 ribonuclease P/MRP subunit) | -0.82 | inactive |
| POP5 (POP5 ribonuclease P/MRP subunit) | -0.8 | inactive |
| PCIF1 (phosphorylated CTD interacting factor 1) | 1 | inactive |
| PCIF1 (phosphorylated CTD interacting factor 1) | 1.01 | inactive |
| PCIF1 (phosphorylated CTD interacting factor 1) | 1.39 | inactive |
| PBXIP1 (PBX homeobox interacting protein 1) | 1.7 | inactive |
| PBXIP1 (PBX homeobox interacting protein 1) | 0.61 | inactive |
| PBXIP1 (PBX homeobox interacting protein 1) | -0.07 | inactive |
| PBXIP1 (PBX homeobox interacting protein 1) | 2.9 | active |
